Results are given in words; binding and its absence hold for the method and conditions named. For part of these data: In cells and extracts the contact can be indirect. Some binding calls cover weakened binding; strength is not graded here. Sequences can lack the tags named with a protein. Blank lines part the entries; values can stand above or below the binder they belong to.
Columns and labels:
[1] = target: T1, GST-AtRAD51 (Arabidopsis thaliana) (UniProt P94102); assay: pull-down; GST- and His-tagged proteins expressed in E. coli, mixed and incubated 2 h at 4°C, pulled down by GST beads 1 h at 4°C; western blot with GST or His-tag antibody
T1 sequence: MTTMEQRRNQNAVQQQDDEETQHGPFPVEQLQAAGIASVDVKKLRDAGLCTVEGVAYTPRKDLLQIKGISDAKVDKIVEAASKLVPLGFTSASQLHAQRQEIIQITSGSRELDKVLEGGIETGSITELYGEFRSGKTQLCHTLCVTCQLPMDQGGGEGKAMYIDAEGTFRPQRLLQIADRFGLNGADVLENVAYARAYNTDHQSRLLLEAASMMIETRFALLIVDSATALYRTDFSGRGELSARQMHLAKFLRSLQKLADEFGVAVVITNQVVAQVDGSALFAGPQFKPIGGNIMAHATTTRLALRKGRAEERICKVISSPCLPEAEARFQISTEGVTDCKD

[2] = target: T2, AtXRCC3 (BiFC fusion) (Arabidopsis thaliana) (UniProt Q9FKM5); assay: split reporter; BiFC (YFP) in Nicotiana benthamiana leaf cells after Agrobacterium infiltration; confocal microscopy after 36 h; nuclear signals
T2 sequence: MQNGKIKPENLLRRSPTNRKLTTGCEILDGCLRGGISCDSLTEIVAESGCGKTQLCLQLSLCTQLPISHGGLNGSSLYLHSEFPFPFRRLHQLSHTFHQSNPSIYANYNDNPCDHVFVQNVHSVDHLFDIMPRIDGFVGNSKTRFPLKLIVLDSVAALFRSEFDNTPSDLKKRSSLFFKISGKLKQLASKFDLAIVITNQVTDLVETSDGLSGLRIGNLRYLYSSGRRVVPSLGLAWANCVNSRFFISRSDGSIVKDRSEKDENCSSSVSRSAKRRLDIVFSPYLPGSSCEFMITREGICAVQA

[3] = target: T3, AtRAD51 (BiFC fusion) (Arabidopsis thaliana) (UniProt P94102); assay: as above
T3 sequence: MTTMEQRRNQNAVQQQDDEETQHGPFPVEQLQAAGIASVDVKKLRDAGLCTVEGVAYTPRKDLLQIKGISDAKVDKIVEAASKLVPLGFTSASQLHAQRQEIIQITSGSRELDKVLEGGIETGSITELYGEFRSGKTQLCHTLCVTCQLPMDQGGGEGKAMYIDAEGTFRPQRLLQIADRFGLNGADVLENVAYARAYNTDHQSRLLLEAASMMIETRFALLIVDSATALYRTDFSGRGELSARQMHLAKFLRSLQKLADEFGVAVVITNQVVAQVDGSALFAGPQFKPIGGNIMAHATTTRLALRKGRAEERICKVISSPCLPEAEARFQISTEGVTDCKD

[4] = target: T4, AtRAD51 (yeast two-hybrid fusion) (Arabidopsis thaliana) (UniProt P94102); assay: two-hybrid; pGBKT7 constructs in Y2H Gold mated with pGADT7 constructs in Y187; selection on SD/-His-Ade-Trp-Leu with X-alpha-Gal and AbA; blue indicates a positive interaction
T4 sequence: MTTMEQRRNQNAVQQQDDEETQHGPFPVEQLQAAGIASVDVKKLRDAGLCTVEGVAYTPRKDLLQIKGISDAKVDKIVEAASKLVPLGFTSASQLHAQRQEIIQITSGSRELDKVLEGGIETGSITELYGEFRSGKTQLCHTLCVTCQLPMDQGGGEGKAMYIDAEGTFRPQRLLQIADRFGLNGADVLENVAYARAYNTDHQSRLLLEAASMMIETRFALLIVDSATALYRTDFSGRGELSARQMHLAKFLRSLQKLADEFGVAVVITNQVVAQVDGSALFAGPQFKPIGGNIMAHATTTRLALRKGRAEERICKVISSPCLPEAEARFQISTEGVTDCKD

[5] = target: T5, AtRAD51C (yeast two-hybrid fusion) (Arabidopsis thaliana) (UniProt Q8GXF0); assay: as above
T5 sequence: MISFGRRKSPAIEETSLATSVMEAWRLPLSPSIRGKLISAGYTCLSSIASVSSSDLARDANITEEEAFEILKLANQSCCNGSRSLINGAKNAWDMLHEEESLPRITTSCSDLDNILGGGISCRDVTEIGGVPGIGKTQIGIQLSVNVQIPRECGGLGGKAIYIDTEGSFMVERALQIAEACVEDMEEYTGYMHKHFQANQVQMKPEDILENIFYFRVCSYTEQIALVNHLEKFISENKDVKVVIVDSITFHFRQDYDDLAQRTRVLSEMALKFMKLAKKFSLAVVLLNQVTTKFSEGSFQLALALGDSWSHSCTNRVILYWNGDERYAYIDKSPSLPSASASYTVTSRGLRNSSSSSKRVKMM

[6] = target: T6, GST-AtRAD51C (Arabidopsis thaliana) (UniProt Q8GXF0); assay: pull-down; GST- and His-tagged proteins expressed in E. coli, mixed and incubated 2 h at 4°C, pulled down by GST beads 1 h at 4°C; western blot with GST or His-tag antibody
T6 sequence: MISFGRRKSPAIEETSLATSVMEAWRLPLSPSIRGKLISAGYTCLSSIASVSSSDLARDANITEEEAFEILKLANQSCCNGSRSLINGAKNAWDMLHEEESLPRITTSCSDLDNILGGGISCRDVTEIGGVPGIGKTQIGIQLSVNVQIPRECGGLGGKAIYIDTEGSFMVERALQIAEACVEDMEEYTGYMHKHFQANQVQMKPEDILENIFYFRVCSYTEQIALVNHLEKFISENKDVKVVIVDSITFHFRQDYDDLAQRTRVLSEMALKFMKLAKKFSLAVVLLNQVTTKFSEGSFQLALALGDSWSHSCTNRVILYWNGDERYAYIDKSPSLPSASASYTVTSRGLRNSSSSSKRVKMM

binding [1]: binds
B1: AtRAD51C-His (protein, UniProt Q8GXF0 1-363)
chain: MISFGRRKSPAIEETSLATSVMEAWRLPLSPSIRGKLISAGYTCLSSIASVSSSDLARDANITEEEAFEILKLANQSCCNGSRSLINGAKNAWDMLHEEESLPRITTSCSDLDNILGGGISCRDVTEIGGVPGIGKTQIGIQLSVNVQIPRECGGLGGKAIYIDTEGSFMVERALQIAEACVEDMEEYTGYMHKHFQANQVQMKPEDILENIFYFRVCSYTEQIALVNHLEKFISENKDVKVVIVDSITFHFRQDYDDLAQRTRVLSEMALKFMKLAKKFSLAVVLLNQVTTKFSEGSFQLALALGDSWSHSCTNRVILYWNGDERYAYIDKSPSLPSASASYTVTSRGLRNSSSSSKRVKMM

binding [2]: binds | binding [3]: binds
B2: AtRAD51C (BiFC fusion) (protein, UniProt Q8GXF0 1-363)
chain: MISFGRRKSPAIEETSLATSVMEAWRLPLSPSIRGKLISAGYTCLSSIASVSSSDLARDANITEEEAFEILKLANQSCCNGSRSLINGAKNAWDMLHEEESLPRITTSCSDLDNILGGGISCRDVTEIGGVPGIGKTQIGIQLSVNVQIPRECGGLGGKAIYIDTEGSFMVERALQIAEACVEDMEEYTGYMHKHFQANQVQMKPEDILENIFYFRVCSYTEQIALVNHLEKFISENKDVKVVIVDSITFHFRQDYDDLAQRTRVLSEMALKFMKLAKKFSLAVVLLNQVTTKFSEGSFQLALALGDSWSHSCTNRVILYWNGDERYAYIDKSPSLPSASASYTVTSRGLRNSSSSSKRVKMM

binding [4]: binds | binding [5]: binds
B3: AtXRCC3 (yeast two-hybrid fusion) (protein, UniProt Q9FKM5 1-304)
chain: MQNGKIKPENLLRRSPTNRKLTTGCEILDGCLRGGISCDSLTEIVAESGCGKTQLCLQLSLCTQLPISHGGLNGSSLYLHSEFPFPFRRLHQLSHTFHQSNPSIYANYNDNPCDHVFVQNVHSVDHLFDIMPRIDGFVGNSKTRFPLKLIVLDSVAALFRSEFDNTPSDLKKRSSLFFKISGKLKQLASKFDLAIVITNQVTDLVETSDGLSGLRIGNLRYLYSSGRRVVPSLGLAWANCVNSRFFISRSDGSIVKDRSEKDENCSSSVSRSAKRRLDIVFSPYLPGSSCEFMITREGICAVQA

binding [6]: binds
B4: AtXRCC3-His tag fusion protein (protein, UniProt Q9FKM5 1-304)
chain: MQNGKIKPENLLRRSPTNRKLTTGCEILDGCLRGGISCDSLTEIVAESGCGKTQLCLQLSLCTQLPISHGGLNGSSLYLHSEFPFPFRRLHQLSHTFHQSNPSIYANYNDNPCDHVFVQNVHSVDHLFDIMPRIDGFVGNSKTRFPLKLIVLDSVAALFRSEFDNTPSDLKKRSSLFFKISGKLKQLASKFDLAIVITNQVTDLVETSDGLSGLRIGNLRYLYSSGRRVVPSLGLAWANCVNSRFFISRSDGSIVKDRSEKDENCSSSVSRSAKRRLDIVFSPYLPGSSCEFMITREGICAVQA

From article PMC5470734
